According to the supplement of paper PMC10849652:
The list shows a part of the results.

Protein sequences, listed by entry. Tags and fused reporters are not part of them. Lines headed by an entry give the natural chain unless they say otherwise; changes in a name come on top.
UniProt Q14160: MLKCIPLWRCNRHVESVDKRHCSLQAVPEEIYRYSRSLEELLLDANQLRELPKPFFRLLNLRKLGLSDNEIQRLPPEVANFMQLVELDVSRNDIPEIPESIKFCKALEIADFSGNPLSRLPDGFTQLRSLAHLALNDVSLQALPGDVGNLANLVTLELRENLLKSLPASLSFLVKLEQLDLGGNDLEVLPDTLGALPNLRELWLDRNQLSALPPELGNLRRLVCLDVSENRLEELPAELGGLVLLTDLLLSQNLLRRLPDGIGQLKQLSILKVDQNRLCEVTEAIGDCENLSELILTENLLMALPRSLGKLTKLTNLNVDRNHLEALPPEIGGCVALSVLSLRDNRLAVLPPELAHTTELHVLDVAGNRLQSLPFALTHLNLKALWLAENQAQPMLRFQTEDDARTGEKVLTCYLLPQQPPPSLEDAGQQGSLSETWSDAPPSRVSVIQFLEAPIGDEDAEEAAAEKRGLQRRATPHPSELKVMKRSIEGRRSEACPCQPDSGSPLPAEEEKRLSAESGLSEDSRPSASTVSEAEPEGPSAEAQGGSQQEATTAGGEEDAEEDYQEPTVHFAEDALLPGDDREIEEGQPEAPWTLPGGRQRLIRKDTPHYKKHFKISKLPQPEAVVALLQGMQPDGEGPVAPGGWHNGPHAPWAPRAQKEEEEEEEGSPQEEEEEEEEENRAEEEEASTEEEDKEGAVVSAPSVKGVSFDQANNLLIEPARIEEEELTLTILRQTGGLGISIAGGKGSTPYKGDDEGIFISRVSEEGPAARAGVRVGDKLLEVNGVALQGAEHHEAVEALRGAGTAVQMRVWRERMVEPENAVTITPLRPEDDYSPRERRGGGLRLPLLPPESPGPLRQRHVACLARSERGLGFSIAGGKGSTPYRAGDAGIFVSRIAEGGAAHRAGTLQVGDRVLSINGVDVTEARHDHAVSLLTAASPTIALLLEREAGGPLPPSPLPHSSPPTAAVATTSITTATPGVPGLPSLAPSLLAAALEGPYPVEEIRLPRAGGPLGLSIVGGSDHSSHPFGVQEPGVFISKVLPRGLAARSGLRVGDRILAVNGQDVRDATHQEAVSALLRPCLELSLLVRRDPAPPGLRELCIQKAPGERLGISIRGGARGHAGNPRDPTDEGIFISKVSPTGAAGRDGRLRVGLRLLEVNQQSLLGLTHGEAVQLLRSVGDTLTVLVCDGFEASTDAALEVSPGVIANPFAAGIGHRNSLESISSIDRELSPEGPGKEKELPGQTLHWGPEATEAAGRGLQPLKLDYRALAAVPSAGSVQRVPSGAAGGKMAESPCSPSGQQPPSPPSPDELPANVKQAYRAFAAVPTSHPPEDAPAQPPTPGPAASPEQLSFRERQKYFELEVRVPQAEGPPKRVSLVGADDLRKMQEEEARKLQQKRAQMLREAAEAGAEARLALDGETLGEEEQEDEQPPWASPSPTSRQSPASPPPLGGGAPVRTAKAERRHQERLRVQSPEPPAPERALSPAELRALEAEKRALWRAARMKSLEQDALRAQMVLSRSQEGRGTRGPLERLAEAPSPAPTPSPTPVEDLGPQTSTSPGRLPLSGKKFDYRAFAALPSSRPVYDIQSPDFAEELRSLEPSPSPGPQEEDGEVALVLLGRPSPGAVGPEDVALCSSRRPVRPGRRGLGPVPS
UniProt P31040: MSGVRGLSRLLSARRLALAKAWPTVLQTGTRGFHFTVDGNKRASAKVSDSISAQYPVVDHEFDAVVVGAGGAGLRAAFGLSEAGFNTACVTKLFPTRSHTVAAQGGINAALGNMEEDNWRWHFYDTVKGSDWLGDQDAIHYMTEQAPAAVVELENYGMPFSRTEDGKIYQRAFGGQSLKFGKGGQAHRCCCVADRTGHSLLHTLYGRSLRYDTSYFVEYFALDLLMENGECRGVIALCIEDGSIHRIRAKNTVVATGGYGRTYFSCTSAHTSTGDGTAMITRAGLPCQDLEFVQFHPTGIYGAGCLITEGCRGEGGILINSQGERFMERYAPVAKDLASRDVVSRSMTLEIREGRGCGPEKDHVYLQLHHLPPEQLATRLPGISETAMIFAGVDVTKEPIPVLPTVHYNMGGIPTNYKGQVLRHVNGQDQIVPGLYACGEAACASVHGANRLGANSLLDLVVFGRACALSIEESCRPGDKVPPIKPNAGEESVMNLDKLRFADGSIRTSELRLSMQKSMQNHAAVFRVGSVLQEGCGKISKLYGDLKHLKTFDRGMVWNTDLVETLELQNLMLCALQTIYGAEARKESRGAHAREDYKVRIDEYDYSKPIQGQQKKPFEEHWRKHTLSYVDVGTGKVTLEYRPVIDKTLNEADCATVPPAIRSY
UniProt Q9BRK5: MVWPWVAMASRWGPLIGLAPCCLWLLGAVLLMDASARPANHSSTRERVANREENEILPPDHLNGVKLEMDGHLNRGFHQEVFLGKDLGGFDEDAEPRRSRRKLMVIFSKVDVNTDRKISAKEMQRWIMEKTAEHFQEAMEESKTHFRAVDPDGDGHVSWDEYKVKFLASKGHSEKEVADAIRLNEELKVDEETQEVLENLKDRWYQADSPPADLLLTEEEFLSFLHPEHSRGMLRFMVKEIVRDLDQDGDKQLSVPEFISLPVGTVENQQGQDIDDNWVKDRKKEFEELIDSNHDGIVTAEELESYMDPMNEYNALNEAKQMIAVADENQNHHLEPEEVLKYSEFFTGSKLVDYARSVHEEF
UniProt Q99611, whole entry, looked up: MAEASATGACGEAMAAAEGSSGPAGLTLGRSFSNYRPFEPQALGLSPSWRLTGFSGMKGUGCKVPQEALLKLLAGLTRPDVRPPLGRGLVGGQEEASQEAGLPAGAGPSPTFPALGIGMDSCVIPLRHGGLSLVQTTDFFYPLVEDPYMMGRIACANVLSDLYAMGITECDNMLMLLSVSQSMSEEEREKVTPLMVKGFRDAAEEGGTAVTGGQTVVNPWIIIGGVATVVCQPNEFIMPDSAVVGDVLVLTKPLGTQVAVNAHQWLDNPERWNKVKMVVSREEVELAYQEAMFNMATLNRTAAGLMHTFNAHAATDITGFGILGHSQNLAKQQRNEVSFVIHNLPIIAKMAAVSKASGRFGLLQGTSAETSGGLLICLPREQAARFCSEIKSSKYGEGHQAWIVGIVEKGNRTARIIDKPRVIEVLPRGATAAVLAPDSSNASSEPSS
UniProt Q0VDG4: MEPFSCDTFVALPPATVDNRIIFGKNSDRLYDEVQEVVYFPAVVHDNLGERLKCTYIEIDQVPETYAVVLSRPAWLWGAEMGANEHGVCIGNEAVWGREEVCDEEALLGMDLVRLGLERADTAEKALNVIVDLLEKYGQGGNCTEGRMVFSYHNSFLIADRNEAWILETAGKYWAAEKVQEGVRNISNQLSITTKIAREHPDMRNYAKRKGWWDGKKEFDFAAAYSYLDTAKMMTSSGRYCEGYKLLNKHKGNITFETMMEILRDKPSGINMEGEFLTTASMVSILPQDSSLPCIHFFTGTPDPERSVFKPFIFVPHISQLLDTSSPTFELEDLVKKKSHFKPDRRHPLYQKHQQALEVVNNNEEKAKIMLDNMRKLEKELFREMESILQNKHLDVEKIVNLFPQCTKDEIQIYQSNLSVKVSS
UniProt P25815: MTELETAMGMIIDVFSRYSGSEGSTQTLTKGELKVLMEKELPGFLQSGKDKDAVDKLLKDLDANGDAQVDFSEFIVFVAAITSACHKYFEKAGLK
UniProt Q9NVA2: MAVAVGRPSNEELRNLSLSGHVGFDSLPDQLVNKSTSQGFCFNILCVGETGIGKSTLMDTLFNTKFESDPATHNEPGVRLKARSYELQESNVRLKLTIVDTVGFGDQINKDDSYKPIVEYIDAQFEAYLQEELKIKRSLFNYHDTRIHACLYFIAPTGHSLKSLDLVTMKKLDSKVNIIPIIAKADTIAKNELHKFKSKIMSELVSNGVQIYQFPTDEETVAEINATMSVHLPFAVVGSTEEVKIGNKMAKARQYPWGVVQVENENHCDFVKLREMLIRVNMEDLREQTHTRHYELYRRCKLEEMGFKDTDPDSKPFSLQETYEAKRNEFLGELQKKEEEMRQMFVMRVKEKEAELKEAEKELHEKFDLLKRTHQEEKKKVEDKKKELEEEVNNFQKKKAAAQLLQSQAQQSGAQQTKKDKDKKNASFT
UniProt O15027: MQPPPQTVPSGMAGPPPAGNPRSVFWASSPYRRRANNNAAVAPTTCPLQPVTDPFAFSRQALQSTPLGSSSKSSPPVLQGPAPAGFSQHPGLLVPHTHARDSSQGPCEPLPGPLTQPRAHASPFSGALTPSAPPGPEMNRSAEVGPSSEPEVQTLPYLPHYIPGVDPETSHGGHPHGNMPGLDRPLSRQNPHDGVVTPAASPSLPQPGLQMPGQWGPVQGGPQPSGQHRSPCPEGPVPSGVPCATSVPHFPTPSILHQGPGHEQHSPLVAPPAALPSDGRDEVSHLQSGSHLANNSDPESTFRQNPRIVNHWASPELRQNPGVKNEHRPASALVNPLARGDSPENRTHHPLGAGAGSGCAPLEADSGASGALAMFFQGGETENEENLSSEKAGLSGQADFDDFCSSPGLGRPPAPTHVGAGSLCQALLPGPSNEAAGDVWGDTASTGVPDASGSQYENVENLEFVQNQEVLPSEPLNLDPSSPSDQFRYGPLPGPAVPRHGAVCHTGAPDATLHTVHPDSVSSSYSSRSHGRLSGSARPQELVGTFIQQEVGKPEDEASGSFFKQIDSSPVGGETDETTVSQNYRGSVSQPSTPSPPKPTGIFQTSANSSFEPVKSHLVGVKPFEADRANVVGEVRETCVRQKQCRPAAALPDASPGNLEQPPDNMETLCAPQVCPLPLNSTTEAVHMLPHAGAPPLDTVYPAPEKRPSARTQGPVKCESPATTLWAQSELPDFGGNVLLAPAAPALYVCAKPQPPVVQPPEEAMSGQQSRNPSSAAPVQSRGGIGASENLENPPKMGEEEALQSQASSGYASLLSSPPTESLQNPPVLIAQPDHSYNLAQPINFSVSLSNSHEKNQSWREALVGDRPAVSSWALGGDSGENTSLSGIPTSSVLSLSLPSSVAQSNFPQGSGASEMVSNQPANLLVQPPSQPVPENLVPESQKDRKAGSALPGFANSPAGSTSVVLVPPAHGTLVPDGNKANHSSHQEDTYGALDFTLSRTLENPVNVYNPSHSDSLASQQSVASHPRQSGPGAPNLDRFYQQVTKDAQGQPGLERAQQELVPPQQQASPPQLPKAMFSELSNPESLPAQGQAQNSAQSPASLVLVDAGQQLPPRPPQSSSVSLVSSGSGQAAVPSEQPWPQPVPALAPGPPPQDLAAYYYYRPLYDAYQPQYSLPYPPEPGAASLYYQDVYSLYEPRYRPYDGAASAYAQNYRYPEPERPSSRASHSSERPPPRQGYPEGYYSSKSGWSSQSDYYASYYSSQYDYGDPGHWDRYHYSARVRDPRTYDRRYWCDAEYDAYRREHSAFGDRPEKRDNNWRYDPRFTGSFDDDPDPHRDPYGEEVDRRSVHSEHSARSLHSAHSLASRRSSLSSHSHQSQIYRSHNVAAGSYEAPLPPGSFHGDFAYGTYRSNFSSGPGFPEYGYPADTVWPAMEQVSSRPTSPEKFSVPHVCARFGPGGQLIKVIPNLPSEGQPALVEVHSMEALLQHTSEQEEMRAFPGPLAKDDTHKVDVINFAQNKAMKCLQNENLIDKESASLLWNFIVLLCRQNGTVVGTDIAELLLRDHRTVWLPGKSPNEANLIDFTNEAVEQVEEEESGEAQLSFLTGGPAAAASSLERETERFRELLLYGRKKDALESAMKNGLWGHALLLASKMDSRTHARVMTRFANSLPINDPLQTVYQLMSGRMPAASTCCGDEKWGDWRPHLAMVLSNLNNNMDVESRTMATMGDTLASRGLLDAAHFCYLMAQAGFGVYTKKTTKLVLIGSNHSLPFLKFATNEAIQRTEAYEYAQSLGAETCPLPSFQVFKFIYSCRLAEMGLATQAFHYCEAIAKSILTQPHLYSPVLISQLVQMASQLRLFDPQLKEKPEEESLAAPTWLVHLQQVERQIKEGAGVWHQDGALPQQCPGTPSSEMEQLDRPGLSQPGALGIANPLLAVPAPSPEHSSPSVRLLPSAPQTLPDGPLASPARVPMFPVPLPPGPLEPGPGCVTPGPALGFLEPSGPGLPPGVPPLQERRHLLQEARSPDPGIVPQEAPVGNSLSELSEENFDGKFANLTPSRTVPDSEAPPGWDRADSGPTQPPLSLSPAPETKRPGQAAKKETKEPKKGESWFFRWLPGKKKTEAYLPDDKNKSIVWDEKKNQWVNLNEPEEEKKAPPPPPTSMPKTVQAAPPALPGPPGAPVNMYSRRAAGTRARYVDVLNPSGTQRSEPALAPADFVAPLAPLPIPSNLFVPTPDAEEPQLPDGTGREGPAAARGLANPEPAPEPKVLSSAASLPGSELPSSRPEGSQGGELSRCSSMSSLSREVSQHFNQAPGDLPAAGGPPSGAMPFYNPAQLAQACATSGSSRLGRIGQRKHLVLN
UniProt P60059: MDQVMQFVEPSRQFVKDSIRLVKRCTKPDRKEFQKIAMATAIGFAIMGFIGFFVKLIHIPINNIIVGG
UniProt P60468, whole entry, looked up: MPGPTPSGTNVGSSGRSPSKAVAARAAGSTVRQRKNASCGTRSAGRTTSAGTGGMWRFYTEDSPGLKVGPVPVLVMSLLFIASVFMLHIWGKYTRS

Key:
Assay in all cases: log2 fold change, soluble protein after heating vs DMSO (PISA); higher = thermal stabilisation; K562 lysate, 10 uM; active = over 0.2 and 3.5 SD of the protein, either way, in both replicates (recomputed)
erlotinib = compound: C#Cc1cccc(Nc2ncnc3cc(OCCOC)c(OCCOC)cc23)c1 [erlotinib]
How it was run: (§1)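 Dounce homogenisation of K562 pellets in PBS pH 7.4 with 1 mM MgCl2 produced a crude extract, used at 1 mg/mL protein. Exposure to 10 μM compound lasted 30 min, and aliquots were then heated for 3 min across 48°C-58°C, pooled and brought to 0.5% NP-40 at 4°C. The supernatant after 21,000xg for 90 min was quantified by TMTpro 16plex LC-MS/MS with channel sums equalised. Duplicate values are given as log-two fold change in thermal stability relative to solvent controls.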

[1] = compound: C/C(=N\NC(=O)C1=CC(=CC=C1)S(=O)(=O)N2CCOCC2)/C3=C(C=CC(=C3)Cl)O
How it was run: as §1

[2] = compound: C1=CC(=CC=C1C2=NC3=C(N2)C=C(C=C3)C(=O)N)OC4=CC=C(C=C4)Cl
How it was run: as §1

[3] = compound: C1=CC2=C(C=CC(=C2)/C=C\3/C(=O)NC(=NCC4=CC=CS4)S3)N=C1
How it was run: as §1

[4] = compound: C1=CC2=NC=CN=C2C=C1/C=C/3\C(=O)NC(=O)S3
How it was run: as §1

[5] = compound: C1=CC=C(C=C1)C2=NC(=C(N2)C3=CC=NC=C3)C4=CC(=C(C=C4)Cl)O
How it was run: as §1

[6] = compound: C1=CC=C2C(=C1)C3=NNC4=CC=CC(=C43)C2=O
How it was run: as §1

[7] = compound: C1CCN(C1)C(=O)NC2=CC=CC(=C2)NC3=NC=C(C(=N3)NCCC4=CN=CN4)Br
How it was run: as §1

[8] = compound: C1CN(CCC1(CC2=CC=C(C=C2)Cl)N)C3=NC=NC4=C3C=CN4
How it was run: as §1

IRAK-1-4 Inhibitor I = compound: C1COCCN1CCN2C3=CC=CC=C3N=C2NC(=O)C4=CC(=CC=C4)[N+](=O)[O-] [IRAK-1-4 Inhibitor I]
How it was run: as §1

Measured: log2 fold change

SCRIB (UniProt Q14160)
inactive: erlotinib 0.013 | [1] -0.031 | [2] -0.015 | [3] -0.006 | [4] -0.006 | [5] -0.027 | [6] 0.023 | [7] -0.01 | [8] 0.01 | IRAK-1-4 Inhibitor I -0.022

SDHA (UniProt P31040)
inactive: erlotinib 0.001 | [1] 0.034 | [2] 0.109 | [3] -0.006 | [4] 0.005 | [5] -0.005 | [6] 0.025 | [7] -0.009 | [8] 0.004 | IRAK-1-4 Inhibitor I 0.011

SDF4 (UniProt Q9BRK5)
inactive: erlotinib -0.018 | [1] -0.014 | [2] -0.014 | [3] 0.006 | [4] 0.014 | [5] 0.005 | [6] 0.009 | [7] 0.018 | [8] 0.033 | IRAK-1-4 Inhibitor I -0.002

SCAMP4 (UniProt Q969E2)
inactive: erlotinib -0.008 | [1] 0.011 | [2] 0.046 | [3] 0.06 | [4] 0.052 | [5] 0.039 | [6] -0.082 | [7] -0.056 | [8] 0.009 | IRAK-1-4 Inhibitor I 0.01

SDCCAG8 (UniProt Q86SQ7)
inactive: erlotinib -0.003 | [1] -0.004 | [2] -0.009 | [3] -0.01 | [4] -0.031 | [5] 0.025 | [6] -0.017 | [7] -0.019 | [8] 0.049 | IRAK-1-4 Inhibitor I 0.058

SCAMP1 (UniProt O15126)
inactive: erlotinib -0.003 | [1] -0.031 | [2] 0.014 | [3] -0.005 | [4] -0.04 | [5] -0.048 | [6] -0.016 | [7] 0.004 | [8] 0.026 | IRAK-1-4 Inhibitor I 0.049

SAMSN1 (UniProt Q9NSI8)
inactive: erlotinib -0.018 | [1] -0.087 | [2] -0.011 | [3] 0 | [4] -0.035 | [5] -0.002 | [6] 0.017 | [7] -0.011 | [8] -0.009 | IRAK-1-4 Inhibitor I 0.01

SEPHS2 (UniProt Q99611)
inactive: erlotinib -0.051 | [1] 0.05 | [2] 0.002 | [3] -0.029 | [4] -0.009 | [5] -0.005 | [6] 0.091 | [7] 0.061 | [8] 0.052 | IRAK-1-4 Inhibitor I -0.025

SCRN3 (UniProt Q0VDG4)
inactive: erlotinib -0.017 | [1] -0.001 | [2] 0.019 | [3] 0.003 | [4] 0 | [5] 0.02 | [6] 0.013 | [7] 0.004 | [8] 0.027 | IRAK-1-4 Inhibitor I -0.003

SCAF11 (UniProt Q99590)
inactive: erlotinib 0.022 | [1] -0.077 | [2] 0.086 | [3] 0.013 | [4] -0.094 | [5] 0.028 | [6] 0.018 | [7] -0.053 | [8] 0.048 | IRAK-1-4 Inhibitor I -0.014

S100P (UniProt P25815)
inactive: erlotinib 0.054 | [1] 0.137 | [2] -0.051 | [3] 0.002 | [4] -0.075 | [5] -0.004 | [6] -0.086 | [7] 0.034 | [8] 0.033 | IRAK-1-4 Inhibitor I 0.018

SEPTIN11 isoform 2 (UniProt Q9NVA2)
inactive: erlotinib 0.001 | [1] -0.051 | [2] 0.04 | [3] 0.012 | [4] -0.033 | [5] 0.002 | [6] -0.011 | [7] 0.007 | [8] 0.014 | IRAK-1-4 Inhibitor I 0.014

SEC13 isoform 3 (UniProt P55735)
inactive: erlotinib 0.032 | [1] 0.02 | [2] 0.009 | [3] -0.019 | [4] 0 | [5] -0.001 | [6] -0.033 | [7] -0.019 | [8] 0.006 | IRAK-1-4 Inhibitor I -0.028

SEC16A isoform 5 (UniProt O15027)
inactive: erlotinib 0.006 | [1] -0.019 | [2] 0.025 | [3] -0.016 | [4] -0.031 | [5] -0.038 | [6] -0.085 | [7] -0.022 | [8] 0.002 | IRAK-1-4 Inhibitor I -0.005

SEC23B (UniProt Q15437)
inactive: erlotinib 0.046 | [1] 0.016 | [2] -0.004 | [3] 0.009 | [4] 0.005 | [5] 0.005 | [6] 0.004 | [7] -0.002 | [8] 0.033 | IRAK-1-4 Inhibitor I 0.001

SAMM50 (UniProt Q9Y512)
inactive: erlotinib 0.002 | [1] 0.021 | [2] -0.036 | [3] -0.003 | [4] 0.005 | [5] 0.005 | [6] -0.081 | [7] -0.009 | [8] 0.001 | IRAK-1-4 Inhibitor I 0.047

SEC61G (UniProt P60059)
inactive: erlotinib 0.065 | [1] -0.196 | [2] -0.111 | [3] 0.032 | [4] 0.043 | [5] 0.032 | [6] -0.126 | [7] -0.096 | [8] 0.065 | IRAK-1-4 Inhibitor I 0.083

SCAMP3 isoform 2 (UniProt O14828)
inactive: erlotinib -0.108 | [1] 0 | [2] -0.043 | [3] 0.104 | [4] 0.072 | [5] 0.154 | [6] 0.028 | [7] -0.187 | [8] -0.31 | IRAK-1-4 Inhibitor I 0.023

SCARB1 isoform 2 (UniProt Q8WTV0)
inactive: erlotinib 0.008 | [1] -0.022 | [2] 0.014 | [3] 0.004 | [4] 0.012 | [5] -0.023 | [6] -0.002 | [7] 0.017 | [8] 0.012 | IRAK-1-4 Inhibitor I 0.044

SCLY (UniProt Q96I15)
inactive: erlotinib -0.007 | [1] -0.004 | [2] 0.034 | [3] 0.062 | [4] -0.037 | [5] -0.03 | [6] -0.012 | [7] -0.049 | [8] 0.01 | IRAK-1-4 Inhibitor I -0.01

SEC61B (UniProt P60468)
inactive: erlotinib -0.006 | [1] 0.016 | [2] -0.006 | [3] -0.012 | [4] -0.013 | [5] -0.021 | [6] 0.054 | [7] -0.042 | [8] -0.068 | IRAK-1-4 Inhibitor I 0

SCRN2 (UniProt Q96FV2)
inactive: erlotinib -0.01 | [1] -0.099 | [2] -0.066 | [3] -0.059 | [4] 0.01 | [5] 0.091 | [6] -0.117 | [7] -0.04 | [8] -0.007 | IRAK-1-4 Inhibitor I -0.099

SDF2L1 (UniProt Q9HCN8)
inactive: erlotinib -0.008 | [1] -0.03 | [2] 0.022 | [3] -0.032 | [4] -0.01 | [5] -0.022 | [6] 0.018 | [7] 0.056 | [8] -0.002 | IRAK-1-4 Inhibitor I 0.005

SAAL1 (UniProt Q96ER3)
inactive: erlotinib 0.016 | [1] 0.038 | [2] -0.029 | [3] 0.013 | [4] 0.012 | [5] 0.031 | [6] -0.006 | [7] -0.031 | [8] -0.004 | IRAK-1-4 Inhibitor I -0.028

SEPTIN6 (UniProt Q14141)
inactive: erlotinib 0.003 | [1] 0.036 | [2] -0.021 | [3] -0.077 | [4] -0.106 | [5] 0.028 | [6] 0.006 | [7] -0.004 | [8] -0.021 | IRAK-1-4 Inhibitor I 0.035

SEC62 (UniProt Q99442)
inactive: erlotinib -0.046 | [1] -0.008 | [2] 0.018 | [3] 0.046 | [4] -0.021 | [5] 0.036 | [6] -0.022 | [7] -0.017 | [8] -0.009 | IRAK-1-4 Inhibitor I 0.042

SEC61A1 (UniProt P61619)
inactive: erlotinib -0.009 | [1] -0.043 | [2] 0.075 | [3] 0.005 | [4] -0.003 | [5] -0.02 | [6] -0.037 | [7] -0.069 | [8] 0.017 | IRAK-1-4 Inhibitor I 0.011
